PubChem BioAssay AID652272 | Drosophila RNAi Screening Center | 2013

Aim: 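Genome-wide knock-down search for components of Hedgehog signalling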 (primary screen)
Cell system: Drosophila clone 8 (Cl8) cells
Reagent: long dsRNA against Drosophila genes
Measurement: 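Plate reader light from a firefly reporter under a ptc promoter fragment that responds to Hedgehog, with Renilla light as transfection reference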
Reading the numbers: firefly Hh reporter signal: higher = more ptc reporter light; Renilla reference signal: higher = more Renilla control light
Call rule: 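Called a hit if the two-replicate mean z-score lies below -2 or above +3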
Meaning of the calls: active = hit: reporter lowered or raised; inactive = not a hit
The deposit covers about 21,000 reagents; shown is a random part of those that have a named target and a result. In the full data, 503 (2.4%) were called active. 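Raw plate light values, not normalised; calls rest on replicate z-scores that were not deposited; hits include reporter decreases as well as increases.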 Unmarked entries are inactive. Reagents against one gene are numbered here. Not stated in the record: the amount of reagent, the time to read-out.

Cul1 (Cullin 1)
- firefly Hh reporter signal, replicate 1: 90011
- firefly Hh reporter signal, replicate 2: 52794
- Renilla reference signal, replicate 1: 2953
- Renilla reference signal, replicate 2: 1639

peb (pebbled)
- firefly Hh reporter signal, replicate 1: 54853
- firefly Hh reporter signal, replicate 2: 85472
- Renilla reference signal, replicate 1: 1978
- Renilla reference signal, replicate 2: 3193

or (orange)
- firefly Hh reporter signal, replicate 1: 91722
- firefly Hh reporter signal, replicate 2: 53480
- Renilla reference signal, replicate 1: 2640
- Renilla reference signal, replicate 2: 4891

CG4269
- firefly Hh reporter signal, replicate 1: 82042
- firefly Hh reporter signal, replicate 2: 56480
- Renilla reference signal, replicate 1: 1604
- Renilla reference signal, replicate 2: 5175

AcCoAS (Acetyl Coenzyme A synthase) #1
- firefly Hh reporter signal, replicate 1: 6.91e5
- firefly Hh reporter signal, replicate 2: 3.57e5
- firefly Hh reporter signal, replicate 3: 1.13e5
- Renilla reference signal, replicate 1: 5120
- Renilla reference signal, replicate 2: 8227

AcCoAS (Acetyl Coenzyme A synthase) #2
- firefly Hh reporter signal, replicate 1: 66259
- firefly Hh reporter signal, replicate 2: 52473
- Renilla reference signal, replicate 1: 2305
- Renilla reference signal, replicate 2: 2077

qtc (quick-to-court) #1
- firefly Hh reporter signal, replicate 1: 87489
- firefly Hh reporter signal, replicate 2: 63788
- Renilla reference signal, replicate 1: 3810
- Renilla reference signal, replicate 2: 3034

qtc (quick-to-court) #2
- firefly Hh reporter signal, replicate 1: 97159
- firefly Hh reporter signal, replicate 2: 40876
- Renilla reference signal, replicate 1: 2613
- Renilla reference signal, replicate 2: 4226

Ugt302E1 (UDP-glycosyltransferase family 302 member E1)
- firefly Hh reporter signal, replicate 1: 55897
- firefly Hh reporter signal, replicate 2: 95469
- Renilla reference signal, replicate 1: 1584
- Renilla reference signal, replicate 2: 2744

Debcl (Death executioner Bcl-2)
- firefly Hh reporter signal, replicate 1: 99146
- firefly Hh reporter signal, replicate 2: 76546
- Renilla reference signal, replicate 1: 4713
- Renilla reference signal, replicate 2: 3713

bon (bonus)
- firefly Hh reporter signal, replicate 1: 5.88e5
- firefly Hh reporter signal, replicate 2: 1.22e5
- Renilla reference signal, replicate 1: 31113
- Renilla reference signal, replicate 2: 2026

CG30458
- firefly Hh reporter signal, replicate 1: 1.38e5
- firefly Hh reporter signal, replicate 2: 84311
- Renilla reference signal, replicate 1: 3770
- Renilla reference signal, replicate 2: 6461

CG33257
- firefly Hh reporter signal, replicate 1: 1.04e5
- Renilla reference signal, replicate 1: 4044
- Renilla reference signal, replicate 2: 3032

Trissin
- firefly Hh reporter signal, replicate 1: 1.27e5
- firefly Hh reporter signal, replicate 2: 1.27e5
- Renilla reference signal, replicate 1: 3927
- Renilla reference signal, replicate 2: 3634

CG33506
- firefly Hh reporter signal, replicate 1: 1.41e5
- firefly Hh reporter signal, replicate 2: 94036
- Renilla reference signal, replicate 1: 5429
- Renilla reference signal, replicate 2: 1274

Grl58a (Gustatory receptor-like 58a)
- firefly Hh reporter signal, replicate 1: 1.28e5
- firefly Hh reporter signal, replicate 2: 78365
- Renilla reference signal, replicate 1: 3173
- Renilla reference signal, replicate 2: 5645

Rme-8 (Receptor mediated endocytosis 8)
- firefly Hh reporter signal, replicate 1: 1.06e5
- firefly Hh reporter signal, replicate 2: 89376
- Renilla reference signal, replicate 1: 4777
- Renilla reference signal, replicate 2: 3488

ewg (erect wing)
- firefly Hh reporter signal, replicate 1: 1.14e5
- firefly Hh reporter signal, replicate 2: 3.29e5
- Renilla reference signal, replicate 1: 3908
- Renilla reference signal, replicate 2: 12265

mars
- firefly Hh reporter signal, replicate 1: 1.39e5
- firefly Hh reporter signal, replicate 2: 5.21e5
- firefly Hh reporter signal, replicate 3: 68951
- Renilla reference signal, replicate 1: 5048
- Renilla reference signal, replicate 2: 26379

CG12259
- firefly Hh reporter signal, replicate 1: 65804
- firefly Hh reporter signal, replicate 2: 1.05e5
- Renilla reference signal, replicate 1: 2848
- Renilla reference signal, replicate 2: 3425

CG16868
- firefly Hh reporter signal, replicate 1: 87003
- firefly Hh reporter signal, replicate 2: 59140
- Renilla reference signal, replicate 1: 3616
- Renilla reference signal, replicate 2: 2519

RpL7-like (Ribosomal protein L7-like)
- firefly Hh reporter signal, replicate 1: 86325
- firefly Hh reporter signal, replicate 2: 4.28e5
- firefly Hh reporter signal, replicate 3: 42566
- Renilla reference signal, replicate 1: 2827
- Renilla reference signal, replicate 2: 31213

CG9436
- firefly Hh reporter signal, replicate 1: 1.04e5
- firefly Hh reporter signal, replicate 2: 98273
- Renilla reference signal, replicate 1: 4347
- Renilla reference signal, replicate 2: 4115

lncRNA:CR32658 (long non-coding RNA:CR32658)
- firefly Hh reporter signal, replicate 1: 88996
- firefly Hh reporter signal, replicate 2: 2.49e5
- Renilla reference signal, replicate 1: 2181
- Renilla reference signal, replicate 2: 9603

Cpr47Eb (Cuticular protein 47Eb)
- firefly Hh reporter signal, replicate 1: 1.04e5
- firefly Hh reporter signal, replicate 2: 42593
- Renilla reference signal, replicate 1: 2748
- Renilla reference signal, replicate 2: 3609

CG14421
- firefly Hh reporter signal, replicate 1: 1.21e5
- firefly Hh reporter signal, replicate 2: 3.75e5
- Renilla reference signal, replicate 1: 5488
- Renilla reference signal, replicate 2: 13347

Mur2B (Mucin related 2B) #1
- firefly Hh reporter signal, replicate 1: 96138
- firefly Hh reporter signal, replicate 2: 2.12e5
- Renilla reference signal, replicate 1: 1637
- Renilla reference signal, replicate 2: 8585

Mur2B (Mucin related 2B) #2
- firefly Hh reporter signal, replicate 1: 72794
- firefly Hh reporter signal, replicate 2: 2.03e5
- Renilla reference signal, replicate 1: 1586
- Renilla reference signal, replicate 2: 8636

2 entries from above in another layout.
{"gene": "RpL7-like (Ribosomal protein L7-like)", "dsRNA no.": 1, "firefly Hh reporter signal, replicate 1": 86325, "firefly Hh reporter signal, replicate 2": 4.28e5, "firefly Hh reporter signal, replicate 3": 42566, "Renilla reference signal, replicate 1": 2827, "Renilla reference signal, replicate 2": 31213}
{"gene": "CG9436", "dsRNA no.": 1, "firefly Hh reporter signal, replicate 1": 1.04e5, "firefly Hh reporter signal, replicate 2": 98273, "Renilla reference signal, replicate 1": 4347, "Renilla reference signal, replicate 2": 4115}
